Assay results from patent US12072338B2, “Pharmaceutical peptides for the treatment of inflammatory diseases” (PROTAGONISTS LTD., priority 2007, dated 2024).
Several values for one entry are separate records, joined by “and”; a condition that tells them apart may be missing. Equal entries are not always repeated. Entries after “also recorded” stand apart in the source; their conditions may differ. Where two headings read alike, the source gives them in different places. Part of at least one peptide drawing is inferred or uncertain, most often the ends. Some entries share one result that the patent states for a list of compounds. Ends that are not written are not given here.

Chains of the proteins cited; added tags and fusions are not shown. Residues count along the entry.
UniProt P13500, 24-99: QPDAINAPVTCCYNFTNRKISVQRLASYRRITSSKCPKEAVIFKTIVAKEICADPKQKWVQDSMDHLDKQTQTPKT
UniProt P51671, 24-97: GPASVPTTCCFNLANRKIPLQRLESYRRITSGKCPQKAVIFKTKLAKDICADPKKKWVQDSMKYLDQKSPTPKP
UniProt Q99616, 17-98: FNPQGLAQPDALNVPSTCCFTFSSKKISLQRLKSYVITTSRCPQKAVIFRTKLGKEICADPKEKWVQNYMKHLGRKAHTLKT

Key:
[1] = test system: Adjuvant-Induced Arthritis (AIA) rats; test: Adjuvant Induced Arthritis (AIA) rat model, Clinical Score; type: in vivo; conditions: for day from which the peptide had an anti-inflammatory effect: IP on days 7-18, 2.5, 25 and 250 μg (Examples 29, 30, 32) or 25 μg (Examples 33, 34)
Description: Peptides were tested in a rat model of AIA for their anti-inflammatory effects.
Disease Induction: AIA was induced in female Lewis rats aged 7-8 weeks by injection of heat-killed Mycobacerioum tuberculosis (Mt strain H37Ra, Difco Laboratories, USA) dispersed in incomplete Freund's adjuvant to a final concentration of 10 mg/ml (100 μl) at the base of the tail on day 0.
Measurement: Clinical Score (CS, 0-4) for each limb based on (a) joint inflammation, (b) redness, (c) deformity.
Efficacy Protocol 1 (5 rats per group). Peptide/control compound was injected intra-peritoneally (IP, 200 μl) on days 7-11 and 14-18.
Rats were sacrificed (CO2 inhalation) on day 43.
Efficacy Protocol 2 (8 rats per group). Group 1: peptide/PBS was injected intra-peritoneally (IP, 200 μl) on days 7-18; Group 2: PBS was injected IP on days 7-18; Group 3: Dexamethasone (Dexa) was injected IP on days 11 (Clinical Score (CS)1) and 13. Rats were sacrificed on day 43.
Combination Efficacy Protocol 1 (8 rats per group). Group 1: peptide injected IP on days 7-18; Group 2: PBS injected IP on days 7-18; Group 3: Dexa injected IP on day 11 (CS 1) and day 13; Group 4: Dexa injected IP on days 11 and 13 then peptide injected on days 14-22; Group 5: Dexa injected IP on days 11 and 13 then PBS injected on days 14-22.
(§1) Combination Efficacy Protocol 2 (8 rats per group). Group 1: peptide injected IP on days 7-18; Group 2: PBS injected IP on days 7-18; Group 3: Dexa injected IP on day 11 (CS 1) and day 13 then PBS on days 14-22; Group 4: PBS injected IP on days 7-10,12,14; Dexa injected on days 11, 13. Peptide injected on days 15-19.
as §1, with “Protocol 3” for “Protocol 2”, “4: peptide” for “4: PBS”
Control Reagents for Adjuvant Induced Arthritis: Anti-Inflammatory Control: Dexamethasone Sodium Phosphate (Dexacort Forte, Teva) was dissolved in Phosphate Buffer Saline (PBS, GIBCO) to a final concentration of 1 mg/ml and injected in 200 μl (200 μg).
Negative Control: Phosphate Buffer Saline (PBS).

[2] = biological target: T1, MCP-1 (Homo sapiens, UniProt P13500); test: Micro-array analysis of chemokine binding peptides: MCP-1
T1 construct: purchased 300-04
Description: (§2) (1) Printing: Chemokine (CK) solution (in water) was serially diluted with Print Reagent (GenTel BioSurfaces USA) to final concentrations of 50 μg and 25 μg/ml. BSA/BSA-Biotin control solutions (in water) were diluted with Print Reagent to 100 μg/ml. Amplified stock of M13 phage control (M13KEgIII Cloning Vector, New England Biolabs, Cat.No.E8101S) was stored in Tris Buffered Saline (TBS; pH7.5, 4° C.) and diluted with Print Reagent to the working titre (10^8 pfu/μl). An automated spotting robot (16 pin print tool, 0.4 mm head; BioRobotics, UK) was used to print the CK/BSA control/M13 control, 5 repeats per sample (CK 25 μg/ml and 50 μg/ml; BSA 100 μg/ml; M13 20 μl), on PATH Protein Microarray Slides (GenTel, Prod.No. 2-1005/-1025) at […], and 50-70% relative humidity. Printed micro-array slides were stored at Room Temperature (RT) or 4° C. for at least 24 h before use. […]
(§3) (11) Analysis: Quantitative analysis of micro-array was performed by the SpotReader program of Niles Scientific (USA) and presented as Relative Fluorescence (RF) as a function of CK concentration. Micro-array readout (Cy3 fluorescence) was quantified to determine the relative binding affinities of a CBP for the CKs and by inference, the specificity of the CBP for binding to a CK.

[3] = biological target: T2, Exodus-2 (Homo sapiens, UniProt O00585); test: Micro-array analysis of chemokine binding peptides: Exodus-2
T2 construct: purchased 300-35
T2 sequence (O00585 24-134): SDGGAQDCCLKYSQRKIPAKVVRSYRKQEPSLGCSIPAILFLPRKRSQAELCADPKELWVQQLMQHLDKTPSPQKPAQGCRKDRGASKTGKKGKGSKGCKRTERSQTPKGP
Description: as §2, §3

[4] = biological target: T3, IP-10 (Homo sapiens, UniProt P02778); test: Micro-array analysis of chemokine binding peptides: IP-10
T3 construct: purchased 300-12
T3 sequence (P02778 22-98): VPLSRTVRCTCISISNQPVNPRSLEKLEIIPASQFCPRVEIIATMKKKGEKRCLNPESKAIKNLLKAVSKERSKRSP
Description: as §2, §3

[5] = biological target: T4, I-TAC (Homo sapiens, UniProt O14625); test: Micro-array analysis of chemokine binding peptides: I-TAC; conditions: limit = start of the upper 75% of that peptide's response range
T4 construct: purchased 300-46
T4 sequence (O14625 22-94): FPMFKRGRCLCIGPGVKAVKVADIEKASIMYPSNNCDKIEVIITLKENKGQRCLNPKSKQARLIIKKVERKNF
Description: as §2, §3

[6] = biological target: T5, TECK (Homo sapiens, UniProt O15444); test: Micro-array analysis of chemokine binding peptides: TECK
T5 construct: purchased 300-45
T5 sequence (O15444 24-150): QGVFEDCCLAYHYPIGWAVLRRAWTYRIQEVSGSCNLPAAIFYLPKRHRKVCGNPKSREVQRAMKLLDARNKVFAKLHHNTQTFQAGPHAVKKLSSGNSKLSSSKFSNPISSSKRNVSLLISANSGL
Description: as §2, §3

[7] = biological target: T6, GRO-β (Homo sapiens, UniProt P19875); test: Micro-array analysis of chemokine binding peptides: GRO-β
T6 construct: purchased 300-39
T6 sequence (P19875 35-107): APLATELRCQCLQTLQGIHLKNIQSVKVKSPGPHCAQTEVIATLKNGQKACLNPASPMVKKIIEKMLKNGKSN
Description: as §2, §3

[8] = biological target: T7, Eotaxin (Homo sapiens, UniProt P51671); test: Micro-array analysis of chemokine binding peptides: Eotaxin
T7 construct: purchased 300-21
Description: as §2, §3

[9] = biological target: T8, Mig (Homo sapiens, UniProt Q07325); test: Micro-array analysis of chemokine binding peptides: Mig; conditions: limit = start of the upper 75% of that peptide's response range
T8 construct: purchased 300-26
T8 sequence (Q07325 23-125): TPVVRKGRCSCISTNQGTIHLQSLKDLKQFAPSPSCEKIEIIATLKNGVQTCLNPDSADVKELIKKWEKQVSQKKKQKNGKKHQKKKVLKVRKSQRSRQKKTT
Description: as §2, §3

[10] = test system: IL-8; test: Micro-array analysis of chemokine binding peptides: IL-8
Description: as §2, §3

[11] = biological target: T9, RANTES (Homo sapiens, UniProt P13501); test: Micro-array analysis of chemokine binding peptides: RANTES
T9 construct: purchased 300-06
T9 sequence (P13501 24-91): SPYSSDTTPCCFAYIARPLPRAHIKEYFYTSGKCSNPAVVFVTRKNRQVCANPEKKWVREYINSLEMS
Description: as §2, §3

[12] = biological target: T10, Eotaxin 2 (Homo sapiens, UniProt O00175); test: Micro-array analysis of chemokine binding peptides: Eotaxin 2
T10 construct: purchased 300-33
T10 sequence (O00175 27-119): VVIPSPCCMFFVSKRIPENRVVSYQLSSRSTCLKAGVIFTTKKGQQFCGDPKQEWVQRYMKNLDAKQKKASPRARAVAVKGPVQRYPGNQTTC
Description: as §2, §3

[13] = biological target: T11, BCA-1 (Homo sapiens, UniProt O43927); test: Micro-array analysis of chemokine binding peptides: BCA-1
T11 construct: purchased 300-47
T11 sequence (O43927 23-109): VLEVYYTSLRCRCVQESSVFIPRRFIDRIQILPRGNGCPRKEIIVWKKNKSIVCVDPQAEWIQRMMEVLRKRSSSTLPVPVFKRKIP
Description: as §2, §3

[14] = biological target: T12, MCP-2 (Homo sapiens, UniProt P80075); test: Micro-array analysis of chemokine binding peptides: MCP-2
T12 construct: purchased 300-15
T12 sequence (P80075 24-99): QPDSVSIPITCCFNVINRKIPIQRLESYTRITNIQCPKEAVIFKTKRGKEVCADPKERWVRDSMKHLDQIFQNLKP
Description: as §2, §3

[15] = biological target: T13, Fractalkine (Homo sapiens, UniProt P78423); test: Micro-array analysis of chemokine binding peptides: Fractalkine
T13 construct: purchased 300-31
T13 sequence (P78423 25-100 limits assumed): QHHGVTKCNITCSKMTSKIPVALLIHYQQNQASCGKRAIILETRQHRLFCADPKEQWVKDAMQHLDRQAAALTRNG
Description: as §2, §3

[16] = biological target: T14, Lymphotactin (Homo sapiens, UniProt P47992); test: Micro-array analysis of chemokine binding peptides: Lymphotactin
T14 construct: purchased 300-20
T14 sequence (P47992 22-114): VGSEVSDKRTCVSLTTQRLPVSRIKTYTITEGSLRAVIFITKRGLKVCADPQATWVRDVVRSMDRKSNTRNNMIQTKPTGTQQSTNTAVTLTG
Description: as §2, §3

[17] = biological target: T15, MCP-4 (Homo sapiens, UniProt Q99616); test: Micro-array analysis of chemokine binding peptides: MCP-4
T15 construct: purchased 300-24
Description: as §2, §3

[18] = biological target: T16, Eotaxin 3 (Homo sapiens, UniProt Q9Y258); test: Micro-array analysis of chemokine binding peptides: Eotaxin 3
T16 construct: purchased 300-48
T16 sequence (Q9Y258 24-94): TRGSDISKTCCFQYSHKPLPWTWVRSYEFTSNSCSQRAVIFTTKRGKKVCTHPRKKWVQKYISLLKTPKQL
Description: as §2, §3

[19] = IP 3.2 μg/injection on days 7-11 and 14-18

WVFGNAMCK [P8]
day from which the peptide had an anti-inflammatory effect [1]: 11 to 12 days

WVFGNMICK [P8 Rat]
day of maximal anti-inflammatory effect ([1]; 25 μg IP on days 7-18): 13 to 14 days
day from which the peptide had an anti-inflammatory effect [1]: 11 to 12 days

WVFGSGLCK [Ph-p15, WVFGSGLCK]
binding to MCP-1, stated in words [2]: bound
binding to MCP-1, stated in words ([2]; listed as P15): bind specifically and differentially; also recorded: bound specifically and differentially
binding to Exodus-2, stated in words [3]: bound
binding to IP-10 with relatively high affinity (Relative Fluorescence Units) ([4]; limit = start of the upper 75% of that peptide's response range): > 15,000 RFU
binding to IP-10, stated in words ([4]; listed as P15): bind specifically and differentially; also recorded: bound specifically and differentially
binding to I-TAC with relatively high affinity (Relative Fluorescence Units) [5]: > 15,000 RFU
binding to TECK, stated in words [6]: bound
binding to GRO-β, stated in words [7]: bound
binding to Eotaxin, stated in words [8]: bound
binding to Mig with relatively high affinity (Relative Fluorescence Units) [9]: > 15,000 RFU
binding to IL-8, stated in words [10]: bound
binding to IL-8, stated in words ([10]; listed as P15): bind specifically and differentially; also recorded: bound specifically and differentially
binding to RANTES, stated in words [11]: bound
binding to RANTES, stated in words ([11]; listed as P15): bind specifically and differentially; also recorded: bound specifically and differentially
binding to Eotaxin 2, stated in words [12]: bound
binding to BCA-1, stated in words [13]: bound
binding to MCP-2, stated in words [14]: bound
most efficacious of the three doses ([1]; 2.5 μg, 25 μg and 250 μg IP on days 7-18): 25 µg
day of maximal anti-inflammatory effect ([1]; 25 μg IP on days 7-18): 21 days and 17 days
day of maximal anti-inflammatory effect [1, 19]: 20 days
maximal anti-inflammatory effect [1, 19]: 40%
day from which the peptide had an anti-inflammatory effect [1]: ~13 days and 11 to 12 days and 11 days
binding to Fractalkine, stated in words [15]: bound
binding to Fractalkine, stated in words ([15]; listed as P15): bind specifically and differentially; also recorded: bound specifically and differentially
binding to Lymphotactin, stated in words [16]: bound
binding to MCP-4, stated in words [17]: bound
binding to Eotaxin 3, stated in words [18]: bound

WVFGVHFCK [Ph-p8.77]
day of maximal anti-inflammatory effect ([1]; 25 μg IP on days 7-18): 13 to 14 days
day from which the peptide had an anti-inflammatory effect [1]: 11 to 12 days
